Measurements reported in paper PMC6300608.
These are yes or no findings as the source states them, for the method shown. In cells and extracts the contact can be indirect. For some of these results: Binding can be weak; no strength is given. Values belong to the substance of their own block, whether it stands above or below them.

The chains behind the UniProt entries cited, without tags or fusion partners. Where a name states a change or a piece, a line headed by the entry shows the natural chain unless it says otherwise.
UniProt P42336: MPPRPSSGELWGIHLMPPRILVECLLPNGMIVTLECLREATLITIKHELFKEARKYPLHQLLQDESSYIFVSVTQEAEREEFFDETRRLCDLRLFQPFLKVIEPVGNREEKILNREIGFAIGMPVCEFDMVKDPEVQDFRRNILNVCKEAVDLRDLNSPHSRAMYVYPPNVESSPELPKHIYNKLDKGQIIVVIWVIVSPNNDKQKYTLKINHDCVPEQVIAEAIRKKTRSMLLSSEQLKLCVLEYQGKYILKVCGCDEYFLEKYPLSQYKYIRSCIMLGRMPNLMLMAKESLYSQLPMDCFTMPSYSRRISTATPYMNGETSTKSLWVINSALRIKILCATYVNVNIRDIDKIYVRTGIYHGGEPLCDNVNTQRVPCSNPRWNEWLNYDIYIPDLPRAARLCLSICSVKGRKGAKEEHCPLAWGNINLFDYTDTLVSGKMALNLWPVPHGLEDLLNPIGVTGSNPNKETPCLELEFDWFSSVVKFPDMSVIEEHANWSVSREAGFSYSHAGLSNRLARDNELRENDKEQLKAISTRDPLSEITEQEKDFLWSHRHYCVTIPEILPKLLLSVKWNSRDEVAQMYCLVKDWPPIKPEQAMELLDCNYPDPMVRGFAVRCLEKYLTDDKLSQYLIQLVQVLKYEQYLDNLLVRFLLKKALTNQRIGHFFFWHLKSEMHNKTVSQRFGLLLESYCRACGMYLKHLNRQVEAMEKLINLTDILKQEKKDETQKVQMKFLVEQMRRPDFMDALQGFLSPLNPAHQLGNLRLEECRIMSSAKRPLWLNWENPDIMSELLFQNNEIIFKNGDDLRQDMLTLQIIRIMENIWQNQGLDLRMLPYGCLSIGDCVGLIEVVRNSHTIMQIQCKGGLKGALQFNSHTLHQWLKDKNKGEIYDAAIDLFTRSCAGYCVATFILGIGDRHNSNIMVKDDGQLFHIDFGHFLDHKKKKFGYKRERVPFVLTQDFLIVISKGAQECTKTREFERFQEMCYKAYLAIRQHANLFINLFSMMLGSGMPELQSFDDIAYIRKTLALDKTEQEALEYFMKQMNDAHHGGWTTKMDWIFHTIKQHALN
UniProt P42338: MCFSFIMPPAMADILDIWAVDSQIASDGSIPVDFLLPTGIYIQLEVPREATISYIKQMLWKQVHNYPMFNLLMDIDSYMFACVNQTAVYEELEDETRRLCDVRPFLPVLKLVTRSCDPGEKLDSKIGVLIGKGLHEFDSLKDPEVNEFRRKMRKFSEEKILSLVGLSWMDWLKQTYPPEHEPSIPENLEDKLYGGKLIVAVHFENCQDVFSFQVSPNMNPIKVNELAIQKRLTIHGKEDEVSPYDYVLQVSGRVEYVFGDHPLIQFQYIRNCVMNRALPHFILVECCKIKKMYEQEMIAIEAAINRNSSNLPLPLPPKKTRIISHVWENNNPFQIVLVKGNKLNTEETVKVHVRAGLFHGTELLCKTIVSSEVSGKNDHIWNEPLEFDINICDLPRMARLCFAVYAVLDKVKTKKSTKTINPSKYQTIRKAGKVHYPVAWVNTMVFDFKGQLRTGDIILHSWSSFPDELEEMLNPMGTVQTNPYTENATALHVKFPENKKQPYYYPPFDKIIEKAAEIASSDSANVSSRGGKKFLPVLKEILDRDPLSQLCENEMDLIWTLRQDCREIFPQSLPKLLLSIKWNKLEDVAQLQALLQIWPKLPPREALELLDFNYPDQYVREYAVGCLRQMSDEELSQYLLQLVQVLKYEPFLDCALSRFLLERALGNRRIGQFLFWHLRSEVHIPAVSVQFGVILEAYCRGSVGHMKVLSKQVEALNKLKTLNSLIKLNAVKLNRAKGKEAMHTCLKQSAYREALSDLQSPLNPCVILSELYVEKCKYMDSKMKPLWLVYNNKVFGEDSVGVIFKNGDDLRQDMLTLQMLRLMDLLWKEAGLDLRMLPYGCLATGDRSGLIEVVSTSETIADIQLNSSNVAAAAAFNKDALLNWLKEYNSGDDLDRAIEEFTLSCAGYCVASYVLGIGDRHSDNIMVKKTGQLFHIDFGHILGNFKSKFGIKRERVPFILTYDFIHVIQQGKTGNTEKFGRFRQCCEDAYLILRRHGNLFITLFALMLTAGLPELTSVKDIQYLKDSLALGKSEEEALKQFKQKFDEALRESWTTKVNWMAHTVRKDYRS
UniProt P42337: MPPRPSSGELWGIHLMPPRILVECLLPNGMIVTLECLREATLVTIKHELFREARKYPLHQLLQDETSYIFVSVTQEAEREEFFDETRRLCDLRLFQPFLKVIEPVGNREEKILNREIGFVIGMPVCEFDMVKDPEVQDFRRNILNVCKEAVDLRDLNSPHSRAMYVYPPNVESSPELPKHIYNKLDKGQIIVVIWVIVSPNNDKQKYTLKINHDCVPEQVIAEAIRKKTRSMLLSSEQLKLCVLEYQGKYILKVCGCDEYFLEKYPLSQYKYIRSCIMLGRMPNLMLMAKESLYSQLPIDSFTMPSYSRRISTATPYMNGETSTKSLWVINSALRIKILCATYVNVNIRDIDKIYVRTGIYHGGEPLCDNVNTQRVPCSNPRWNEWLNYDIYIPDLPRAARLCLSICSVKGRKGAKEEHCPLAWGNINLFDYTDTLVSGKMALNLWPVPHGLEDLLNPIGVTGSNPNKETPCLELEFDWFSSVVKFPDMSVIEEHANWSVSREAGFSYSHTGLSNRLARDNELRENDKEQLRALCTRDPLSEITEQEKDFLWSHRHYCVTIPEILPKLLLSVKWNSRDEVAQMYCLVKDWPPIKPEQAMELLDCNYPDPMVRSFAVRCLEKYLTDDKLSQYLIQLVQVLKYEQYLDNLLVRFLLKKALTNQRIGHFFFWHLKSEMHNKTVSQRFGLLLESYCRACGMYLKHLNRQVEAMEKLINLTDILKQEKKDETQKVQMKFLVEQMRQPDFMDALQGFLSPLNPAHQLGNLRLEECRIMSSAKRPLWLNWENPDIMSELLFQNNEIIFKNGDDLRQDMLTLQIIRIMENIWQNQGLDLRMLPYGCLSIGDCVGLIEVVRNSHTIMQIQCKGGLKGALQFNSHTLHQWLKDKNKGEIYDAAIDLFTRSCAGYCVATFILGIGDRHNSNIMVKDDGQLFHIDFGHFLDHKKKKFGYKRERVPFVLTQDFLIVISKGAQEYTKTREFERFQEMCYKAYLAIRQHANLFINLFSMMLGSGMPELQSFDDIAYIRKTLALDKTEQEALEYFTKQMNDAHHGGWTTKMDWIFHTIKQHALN
UniProt Q8BTI9: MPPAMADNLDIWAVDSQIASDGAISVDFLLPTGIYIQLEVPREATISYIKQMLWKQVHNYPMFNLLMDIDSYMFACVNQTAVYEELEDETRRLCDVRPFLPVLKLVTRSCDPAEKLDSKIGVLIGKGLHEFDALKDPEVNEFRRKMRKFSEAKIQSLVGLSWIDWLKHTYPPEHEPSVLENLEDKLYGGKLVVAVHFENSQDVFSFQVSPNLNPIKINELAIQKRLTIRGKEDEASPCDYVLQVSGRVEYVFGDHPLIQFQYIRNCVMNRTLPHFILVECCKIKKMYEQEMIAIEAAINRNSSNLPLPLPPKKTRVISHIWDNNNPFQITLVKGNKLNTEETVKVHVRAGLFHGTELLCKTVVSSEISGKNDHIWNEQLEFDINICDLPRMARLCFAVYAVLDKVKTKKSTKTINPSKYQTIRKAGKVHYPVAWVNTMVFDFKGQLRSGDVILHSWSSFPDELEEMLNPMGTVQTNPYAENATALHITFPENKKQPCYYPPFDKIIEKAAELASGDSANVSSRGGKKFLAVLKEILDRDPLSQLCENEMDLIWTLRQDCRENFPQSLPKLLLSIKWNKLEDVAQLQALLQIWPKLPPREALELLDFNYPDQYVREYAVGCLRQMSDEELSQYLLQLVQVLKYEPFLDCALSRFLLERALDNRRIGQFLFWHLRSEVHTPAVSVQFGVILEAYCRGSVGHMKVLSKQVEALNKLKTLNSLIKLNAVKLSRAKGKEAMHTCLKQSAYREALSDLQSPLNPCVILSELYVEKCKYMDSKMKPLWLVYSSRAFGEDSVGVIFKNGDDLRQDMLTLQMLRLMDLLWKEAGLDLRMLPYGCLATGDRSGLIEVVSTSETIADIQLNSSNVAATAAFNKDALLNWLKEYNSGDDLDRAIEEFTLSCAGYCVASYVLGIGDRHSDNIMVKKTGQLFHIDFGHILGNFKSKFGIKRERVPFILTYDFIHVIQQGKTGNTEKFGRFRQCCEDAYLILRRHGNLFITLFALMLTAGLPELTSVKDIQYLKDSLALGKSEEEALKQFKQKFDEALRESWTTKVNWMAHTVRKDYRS
UniProt P13020: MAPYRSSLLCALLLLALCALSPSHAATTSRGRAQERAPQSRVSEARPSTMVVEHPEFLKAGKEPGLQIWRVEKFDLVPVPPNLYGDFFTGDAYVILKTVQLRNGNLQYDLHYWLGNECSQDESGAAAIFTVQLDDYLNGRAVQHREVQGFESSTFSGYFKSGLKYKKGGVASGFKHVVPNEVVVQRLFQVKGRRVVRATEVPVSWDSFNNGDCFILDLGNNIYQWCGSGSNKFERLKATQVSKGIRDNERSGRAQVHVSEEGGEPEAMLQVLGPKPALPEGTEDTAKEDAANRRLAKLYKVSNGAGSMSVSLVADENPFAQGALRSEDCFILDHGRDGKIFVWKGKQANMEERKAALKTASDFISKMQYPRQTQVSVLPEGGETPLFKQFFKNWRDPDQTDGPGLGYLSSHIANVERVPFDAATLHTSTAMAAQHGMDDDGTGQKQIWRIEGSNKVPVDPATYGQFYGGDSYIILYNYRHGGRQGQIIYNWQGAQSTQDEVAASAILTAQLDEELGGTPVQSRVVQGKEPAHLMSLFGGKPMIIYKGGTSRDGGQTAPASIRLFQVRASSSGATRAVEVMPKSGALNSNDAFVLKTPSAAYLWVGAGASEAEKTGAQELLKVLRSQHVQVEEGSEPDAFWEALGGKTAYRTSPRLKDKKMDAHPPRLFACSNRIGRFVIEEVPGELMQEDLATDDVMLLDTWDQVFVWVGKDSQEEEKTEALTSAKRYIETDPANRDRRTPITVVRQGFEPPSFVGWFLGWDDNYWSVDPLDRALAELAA
UniProt P06396: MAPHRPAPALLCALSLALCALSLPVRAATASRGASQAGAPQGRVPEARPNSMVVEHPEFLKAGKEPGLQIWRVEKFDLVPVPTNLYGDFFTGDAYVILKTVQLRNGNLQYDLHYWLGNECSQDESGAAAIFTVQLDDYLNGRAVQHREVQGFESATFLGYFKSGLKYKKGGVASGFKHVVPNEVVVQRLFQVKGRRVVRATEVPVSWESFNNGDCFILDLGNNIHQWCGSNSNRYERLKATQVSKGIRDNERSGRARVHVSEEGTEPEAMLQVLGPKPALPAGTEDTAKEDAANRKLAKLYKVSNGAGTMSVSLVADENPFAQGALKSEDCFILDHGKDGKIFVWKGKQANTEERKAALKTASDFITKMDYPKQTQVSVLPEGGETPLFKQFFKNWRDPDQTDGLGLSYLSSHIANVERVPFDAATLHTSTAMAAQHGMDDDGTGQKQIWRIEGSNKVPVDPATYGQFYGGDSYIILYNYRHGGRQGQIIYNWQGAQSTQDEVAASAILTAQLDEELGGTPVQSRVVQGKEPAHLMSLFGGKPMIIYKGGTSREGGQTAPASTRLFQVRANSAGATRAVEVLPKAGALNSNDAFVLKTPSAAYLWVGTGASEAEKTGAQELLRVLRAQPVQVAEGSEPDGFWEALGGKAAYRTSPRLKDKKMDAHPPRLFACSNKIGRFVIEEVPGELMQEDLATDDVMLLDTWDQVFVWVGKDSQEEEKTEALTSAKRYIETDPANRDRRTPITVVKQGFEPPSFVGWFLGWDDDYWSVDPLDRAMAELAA

How the values were obtained:
Assay in all cases: co-IP; endogenous proteins of murine and human myocardial tissue; immunoprecipitation of gelsolin, and reciprocally with antibodies against p110α or p110β, then immunoblotting; performed as described in refs 4, 57
[1] = biological target: p110α (human heart) (human (endogenous in human myocardial tissue)) (UniProt P42336)
[2] = biological target: p110β (human heart) (human (endogenous in human myocardial tissue)) (UniProt P42338)
[3] = biological target: p110α (murine heart) (mouse (endogenous in murine myocardial tissue)) (UniProt P42337)
[4] = biological target: p110β (murine heart) (mouse (endogenous in murine myocardial tissue)) (UniProt Q8BTI9)
[5] = biological target: gelsolin (murine heart) (mouse (endogenous in murine myocardial tissue)) (UniProt P13020)
[6] = biological target: gelsolin (human heart) (human (endogenous in human myocardial tissue)) (UniProt P06396)

Substance: gelsolin (human heart) (from UniProt P06396)
- binding [1]: binds
- binding [2]: no binding

Substance: p110β (human heart) (from UniProt P42338 1-1070) (enzyme)
- binding [6]: no binding

Substance: p110β (murine heart) (from UniProt Q8BTI9 1-1064) (enzyme)
- binding [5]: no binding

More lines, now with the values ahead:

- binding [3]: binds
- binding [4]: no binding
Substance: gelsolin (murine heart) (from UniProt P13020)

- binding [5]: binds
Substance: p110α (murine heart) (from UniProt P42337 1-1068) (enzyme)
